Consider three molecules from PMC11132878.

The target in assay [1] is T1, GST-CHR24-ATPase (Arabidopsis thaliana) (UniProt Q8W103).
T1 sequence: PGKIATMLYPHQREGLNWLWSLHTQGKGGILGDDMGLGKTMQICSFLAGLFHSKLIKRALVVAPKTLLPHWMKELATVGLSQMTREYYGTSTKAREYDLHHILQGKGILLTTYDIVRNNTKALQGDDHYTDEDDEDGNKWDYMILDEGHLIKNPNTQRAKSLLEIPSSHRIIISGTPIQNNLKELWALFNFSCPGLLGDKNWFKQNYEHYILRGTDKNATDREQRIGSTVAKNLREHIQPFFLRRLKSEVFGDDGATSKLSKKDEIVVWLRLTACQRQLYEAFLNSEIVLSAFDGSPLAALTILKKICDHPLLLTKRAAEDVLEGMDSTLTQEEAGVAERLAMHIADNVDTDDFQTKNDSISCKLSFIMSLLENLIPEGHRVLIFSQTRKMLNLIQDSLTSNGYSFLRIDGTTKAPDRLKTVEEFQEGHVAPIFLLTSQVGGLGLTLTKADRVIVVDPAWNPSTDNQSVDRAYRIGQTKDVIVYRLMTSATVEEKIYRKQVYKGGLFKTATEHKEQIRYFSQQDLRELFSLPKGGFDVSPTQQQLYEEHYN
Kind of assay: pull-down; GST-tagged truncated CHR24 proteins on glutathione-sepharose 4B beads, plant extracts; detection with antibody against GFP (YFP-NAP1;2) or MYC (MYC-ARP); only the target purified.

Assay [2] deals with T2, FLAG-Apn1 (yeast) (UniProt P22936).
T2 sequence: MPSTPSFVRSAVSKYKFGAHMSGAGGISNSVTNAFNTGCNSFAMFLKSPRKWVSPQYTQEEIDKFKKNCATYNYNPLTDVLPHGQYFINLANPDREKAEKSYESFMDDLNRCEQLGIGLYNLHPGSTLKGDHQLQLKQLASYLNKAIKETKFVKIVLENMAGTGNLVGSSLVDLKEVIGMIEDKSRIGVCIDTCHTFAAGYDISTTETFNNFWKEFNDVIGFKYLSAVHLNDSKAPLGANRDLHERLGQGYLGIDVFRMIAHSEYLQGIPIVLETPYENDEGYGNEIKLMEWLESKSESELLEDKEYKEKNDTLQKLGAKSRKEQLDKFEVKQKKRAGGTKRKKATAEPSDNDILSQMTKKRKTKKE
In words: co-IP; pairwise co-IP validation of Apn1, Nap1 and Rad26 in yeast with negative controls (Supplementary Fig. S14).

Assay [3] deals with T2, FLAG-Apn1 (yeast). In words: co-IP; FLAG-Apn1, Nap1-MYC and HA-Rad26 co-expressed in yeast apn1Δ nap1Δ rad26Δ cells; co-IP buffer 50 mM Tris–HCl pH 7.8, 100 mM NaCl, 5 mM MgCl2, 10% glycerol, 0.05% NP-40, 1 mM DTT; IP with or without antibodies against FLAG, HA and MYC.
Assay [4] concerns the target T3, HA-Rad26 (yeast) (UniProt P40352).
T3 sequence: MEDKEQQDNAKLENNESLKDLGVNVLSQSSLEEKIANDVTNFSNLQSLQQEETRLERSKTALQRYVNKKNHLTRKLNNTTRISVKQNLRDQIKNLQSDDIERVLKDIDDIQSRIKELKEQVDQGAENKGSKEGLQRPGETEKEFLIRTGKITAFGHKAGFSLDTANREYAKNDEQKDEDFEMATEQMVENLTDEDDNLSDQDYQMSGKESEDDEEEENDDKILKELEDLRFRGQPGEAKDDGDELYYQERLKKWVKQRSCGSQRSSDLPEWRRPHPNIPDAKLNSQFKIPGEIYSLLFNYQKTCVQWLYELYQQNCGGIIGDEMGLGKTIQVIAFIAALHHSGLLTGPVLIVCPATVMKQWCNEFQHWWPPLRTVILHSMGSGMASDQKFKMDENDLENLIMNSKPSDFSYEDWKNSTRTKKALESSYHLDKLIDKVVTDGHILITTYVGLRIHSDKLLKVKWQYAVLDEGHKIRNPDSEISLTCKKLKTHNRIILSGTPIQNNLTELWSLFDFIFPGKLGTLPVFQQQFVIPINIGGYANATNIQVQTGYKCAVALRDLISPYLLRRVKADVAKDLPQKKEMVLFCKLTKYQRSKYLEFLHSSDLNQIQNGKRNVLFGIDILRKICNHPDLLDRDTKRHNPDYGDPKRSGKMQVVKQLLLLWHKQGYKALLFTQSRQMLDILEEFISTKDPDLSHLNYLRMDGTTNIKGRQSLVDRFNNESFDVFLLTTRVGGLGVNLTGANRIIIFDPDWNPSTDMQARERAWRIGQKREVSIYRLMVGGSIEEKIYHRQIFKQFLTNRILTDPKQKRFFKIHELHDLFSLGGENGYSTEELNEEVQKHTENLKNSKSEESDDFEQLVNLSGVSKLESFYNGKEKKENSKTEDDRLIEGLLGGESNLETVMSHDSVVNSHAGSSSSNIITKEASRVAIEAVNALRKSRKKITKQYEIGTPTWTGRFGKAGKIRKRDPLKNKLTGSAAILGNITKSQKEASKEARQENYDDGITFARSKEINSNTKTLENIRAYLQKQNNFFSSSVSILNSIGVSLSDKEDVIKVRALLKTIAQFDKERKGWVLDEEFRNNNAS
Kind of assay: co-IP; pairwise co-IP validation of Apn1, Nap1 and Rad26 in yeast with negative controls (Supplementary Fig. S14).

In assay [5] the target is T3, HA-Rad26 (yeast). Kind of assay: co-IP; FLAG-Apn1, Nap1-MYC and HA-Rad26 co-expressed in yeast apn1Δ nap1Δ rad26Δ cells; co-IP buffer 50 mM Tris–HCl pH 7.8, 100 mM NaCl, 5 mM MgCl2, 10% glycerol, 0.05% NP-40, 1 mM DTT; IP with or without antibodies against FLAG, HA and MYC.

Results are given in words; binding and its absence hold for the method and conditions named. Binding seen in cells or lysates may run through a third protein. Some results given as binding are weak or reduced against the parent protein; the word gives no strength. Where a sequence is shown, tags or fusion partners need not be part of it.

B1: MYC-tagged ARP (MYC-ARP) (enzyme, UniProt P45951 1-536)
chain: MNNVLQFGLQSSAIYVAKFLVVPLRSLRVGSSFVGVGVGTRSFNKRLMSNATAFSINNSKRKELKIPGAAIDQNCHQMGSDTDRDEMGTLQDDRKEIEAMTVQELRSTLRKLGVPVKGRKQELISTLRLHMDSNLPDQKETSSSTRSDSVTIKRKISNREEPTEDECTNSEAYDIEHGEKRVKQSTEKNLKAKVSAKAIAKEQKSLMRTGKQQIQSKEETSSTISSELLKTEEIISSPSQSEPWTVLAHKKPQKDWKAYNPKTMRPPPLPEGTKCVKVMTWNVNGLRGLLKFESFSALQLAQRENFDILCLQETKLQVKDVEEIKKTLIDGYDHSFWSCSVSKLGYSGTAIISRIKPLSVRYGTGLSGHDTEGRIVTAEFDSFYLINTYVPNSGDGLKRLSYRIEEWDRTLSNHIKELEKSKPVVLTGDLNCAHEEIDIFNPAGNKRSAGFTIEERQSFGANLLDKGFVDTFRKQHPGVVGYTYWGYRHGGRKTNKGWRLDYFLVSQSIAANVHDSYILPDINGSDHCPIGLILKL
With B1, the binding entry in assay [1] is given as “binds”.

B2: HA-Rad26 (enzyme, UniProt P40352 1-1085)
chain: T3 sequence
As for B2, the binding entry in assay [2] and in assay [3] was “binds” each time.

B3: Nap1-MYC (protein, UniProt P25293 1-417)
chain: MSDPIRTKPKSSMQIDNAPTPHNTPASVLNPSYLKNGNPVRAQAQEQDDKIGTINEEDILANQPLLLQSIQDRLGSLVGQDSGYVGGLPKNVKEKLLSLKTLQSELFEVEKEFQVEMFELENKFLQKYKPIWEQRSRIISGQEQPKPEQIAKGQEIVESLNETELLVDEEEKAQNDSEEEQVKGIPSFWLTALENLPIVCDTITDRDAEVLEYLQDIGLEYLTDGRPGFKLLFRFDSSANPFFTNDILCKTYFYQKELGYSGDFIYDHAEGCEISWKDNAHNVTVDLEMRKQRNKTTKQVRTIEKITPIESFFNFFDPPKIQNEDQDEELEEDLEERLALDYSIGEQLKDKLIPRAVDWFTGAALEFEFEEDEEEADEDEDEEEDDDHGLEDDDGESAEEQDDFAGRPEQAPECKQS
With B3, the binding entry in assay [4], in assay [2], in assay [5] and in assay [3] was “binds” each time.
